The source of these data is PMC3136521.

Chains of the proteins cited; added tags and fusions are not shown.
UniProt O75376: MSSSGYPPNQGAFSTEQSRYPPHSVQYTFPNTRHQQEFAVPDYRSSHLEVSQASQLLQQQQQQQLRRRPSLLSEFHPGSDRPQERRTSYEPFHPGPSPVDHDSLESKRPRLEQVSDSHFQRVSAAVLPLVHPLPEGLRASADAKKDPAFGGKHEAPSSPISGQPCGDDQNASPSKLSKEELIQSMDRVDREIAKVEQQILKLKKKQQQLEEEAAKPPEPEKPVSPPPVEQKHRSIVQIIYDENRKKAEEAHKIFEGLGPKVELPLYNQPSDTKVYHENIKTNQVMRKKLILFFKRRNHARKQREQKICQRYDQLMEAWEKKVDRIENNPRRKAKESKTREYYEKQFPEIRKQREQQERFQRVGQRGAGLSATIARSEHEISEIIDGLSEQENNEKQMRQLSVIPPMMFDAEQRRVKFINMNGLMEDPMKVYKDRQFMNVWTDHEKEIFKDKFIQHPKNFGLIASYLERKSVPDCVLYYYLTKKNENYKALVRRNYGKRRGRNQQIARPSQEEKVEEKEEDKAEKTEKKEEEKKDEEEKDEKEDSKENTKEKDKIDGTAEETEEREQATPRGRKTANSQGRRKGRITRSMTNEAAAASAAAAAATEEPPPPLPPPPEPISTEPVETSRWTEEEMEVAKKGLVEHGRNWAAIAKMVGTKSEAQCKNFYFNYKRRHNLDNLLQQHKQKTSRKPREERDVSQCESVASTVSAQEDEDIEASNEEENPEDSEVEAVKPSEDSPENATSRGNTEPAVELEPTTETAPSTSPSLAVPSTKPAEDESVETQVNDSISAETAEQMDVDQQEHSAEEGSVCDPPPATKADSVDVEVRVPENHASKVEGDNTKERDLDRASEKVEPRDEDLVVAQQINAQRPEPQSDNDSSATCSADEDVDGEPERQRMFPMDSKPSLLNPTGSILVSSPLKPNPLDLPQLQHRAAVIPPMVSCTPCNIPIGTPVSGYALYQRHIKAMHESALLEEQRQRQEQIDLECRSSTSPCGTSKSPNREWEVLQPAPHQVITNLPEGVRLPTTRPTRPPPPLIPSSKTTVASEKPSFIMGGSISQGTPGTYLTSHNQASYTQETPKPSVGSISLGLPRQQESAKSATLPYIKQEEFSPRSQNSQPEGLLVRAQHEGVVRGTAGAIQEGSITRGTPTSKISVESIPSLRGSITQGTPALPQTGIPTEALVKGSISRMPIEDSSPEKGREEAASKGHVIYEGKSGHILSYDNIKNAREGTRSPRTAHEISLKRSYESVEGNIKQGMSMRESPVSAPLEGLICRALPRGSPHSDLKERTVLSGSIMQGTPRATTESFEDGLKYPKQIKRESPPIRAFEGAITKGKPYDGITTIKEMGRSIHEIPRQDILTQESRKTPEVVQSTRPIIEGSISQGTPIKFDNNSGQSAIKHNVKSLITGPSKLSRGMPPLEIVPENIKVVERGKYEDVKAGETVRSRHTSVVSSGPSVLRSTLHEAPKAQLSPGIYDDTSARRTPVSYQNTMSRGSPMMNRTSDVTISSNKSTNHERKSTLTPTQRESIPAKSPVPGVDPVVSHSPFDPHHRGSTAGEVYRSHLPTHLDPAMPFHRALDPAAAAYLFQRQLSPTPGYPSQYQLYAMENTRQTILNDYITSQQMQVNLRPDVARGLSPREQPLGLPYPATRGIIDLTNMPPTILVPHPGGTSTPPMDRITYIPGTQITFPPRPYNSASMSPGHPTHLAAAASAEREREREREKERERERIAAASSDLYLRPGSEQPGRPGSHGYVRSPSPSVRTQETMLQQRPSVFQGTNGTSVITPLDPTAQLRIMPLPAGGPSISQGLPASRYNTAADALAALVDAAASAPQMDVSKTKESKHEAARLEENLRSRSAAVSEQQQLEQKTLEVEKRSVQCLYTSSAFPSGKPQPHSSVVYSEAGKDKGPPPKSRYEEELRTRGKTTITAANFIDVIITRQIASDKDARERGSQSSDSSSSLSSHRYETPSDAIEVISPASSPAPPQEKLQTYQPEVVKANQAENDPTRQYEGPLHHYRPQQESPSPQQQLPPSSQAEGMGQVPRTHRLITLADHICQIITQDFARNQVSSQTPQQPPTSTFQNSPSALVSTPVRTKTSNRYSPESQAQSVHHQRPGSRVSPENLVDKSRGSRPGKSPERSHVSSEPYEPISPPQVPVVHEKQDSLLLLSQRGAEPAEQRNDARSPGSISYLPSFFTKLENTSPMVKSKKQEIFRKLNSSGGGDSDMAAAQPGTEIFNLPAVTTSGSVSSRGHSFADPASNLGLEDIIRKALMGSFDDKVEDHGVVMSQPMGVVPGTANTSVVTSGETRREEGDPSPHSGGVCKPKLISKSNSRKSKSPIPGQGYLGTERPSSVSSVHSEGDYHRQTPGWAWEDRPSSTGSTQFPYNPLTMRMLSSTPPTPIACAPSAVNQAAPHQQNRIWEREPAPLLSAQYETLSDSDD

Substitutions are numbered along the chain they refer to. Results are given in words; binding and its absence hold for the method and conditions named. Binding seen in cells or lysates may run through a third protein. Some binding calls cover weakened binding; strength is not graded here. Where a sequence is shown, tags or fusion partners need not be part of it.

The experiment deals with N-CoR transcriptional co-repressor (UniProt O75376). Description: co-IP; 293T cells co-transfected with N-CoR and N-terminal myc-tagged SMYD3 constructs; RIPA whole cell lysates 48 h after transfection; anti-N-CoR immunoprecipitation, Western with anti-myc.

B1: N-terminal myc-tagged SMYD3, wildtype (enzyme, UniProt Q9H7B4 1-428)
chain: MEPLKVEKFATAKRGNGLRAVTPLRPGELLFRSDPLAYTVCKGSRGVVCDRCLLGKEKLMRCSQCRVAKYCSAKCQKKAWPDHKRECKCLKSCKPRYPPDSVRLLGRVVFKLMDGAPSESEKLYSFYDLESNINKLTEDKKEGLRQLVMTFQHFMREEIQDASQLPPAFDLFEAFAKVICNSFTICNAEMQEVGVGLYPSISLLNHSCDPNCSIVFNGPHLLLRAVRDIEVGEELTICYLDMLMTSEERRKQLRDQYCFECDCFRCQTQDKDADMLTGDEQVWKEVQESLKKIEELKAHWKWEQVLAMCQAIISSNSERLPDINIYQLKVLDCAMDACINLGLLEEALFYGTRTMEPYRIFFPGSHPVRGVQVMKVGKLQLHQGMFPQAMKNLRLAFDIMRVTHGREHSLIEDLILLLEECDANIRAS
In the case of B1, the binding result is reported as “binds”.

B2: N-terminal myc-tagged SMYD3 MYND domain point mutant C49/S (enzyme, UniProt Q9H7B4 1-428)
chain: B1 chain with C49S
As to B2, the binding result is on record as “no binding”.
